# Values from PubChem BioAssay AID1259308 (NCATS, 2017).
# Aim: 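Knock-downs that increase output of a recombinant reporter protein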 (primary screen)
# Cells: human HEK293 embryonic kidney cells stably expressing firefly luciferase (HEK-CMV-Luc2-Hygro)
# Knock-down reagent: single siRNA against human genes, 0.8 pmol siRNA per well
# Time to read-out: 72 h
# Read-out: 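Luciferase light (ONE-Glo) measured on one replicate plate set and viability (CellTiter-Glo) on the other, scaled to a negative control siRNA, with robust z-scores and luciferase per cell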
# Scale: total luciferase, z-score and total luciferase, % of control: higher = more reporter protein produced; luciferase per cell, z-score: higher = more reporter output per viable cell
# Rule for the call: 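Active when the median/MAD z-score for overall luciferase is greater than 3; a gene was taken forward for validation with new siRNAs if at least two of its three siRNAs passed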
# Meaning of the calls: active = raised luciferase; inactive = no rise
# Here is one part, drawn at random, of about 59,000 reagents tested. About 1,510 of them (2.6%) count as active. 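Calls use total luciferase alone and ignore viability, so some active siRNAs may act by altering cell number.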 A number with no mark means an inactive call. Further read-outs or replicates are left out here. Reagent sequences are not shown.
The opening 5 records, to show the layout:
gene,PubChem SID,"total luciferase, z-score","total luciferase, % of control","luciferase per cell, z-score"
TOM1L1 (target of myb1 like 1 membrane trafficking protein),SID160724301,-0.553,70.9,-1.2
TOM1L1 (target of myb1 like 1 membrane trafficking protein),SID160724310,0.039,82.7,0.828
TOM1L1 (target of myb1 like 1 membrane trafficking protein),SID160724320,-0.0305,81.3,0.547
AKR7A2 (aldo-keto reductase family 7 member A2),SID160720373,-0.239,77.1,-0.561
AKR7A2 (aldo-keto reductase family 7 member A2),SID160720374,0.603,93.9,0.318

The list itself, from the start:
gene,PubChem SID,"total luciferase, z-score","total luciferase, % of control","luciferase per cell, z-score"
TOM1L1 (target of myb1 like 1 membrane trafficking protein),SID160724301,-0.553,70.9,-1.2
TOM1L1 (target of myb1 like 1 membrane trafficking protein),SID160724310,0.039,82.7,0.828
TOM1L1 (target of myb1 like 1 membrane trafficking protein),SID160724320,-0.0305,81.3,0.547
AKR7A2 (aldo-keto reductase family 7 member A2),SID160720373,-0.239,77.1,-0.561
AKR7A2 (aldo-keto reductase family 7 member A2),SID160720374,0.603,93.9,0.318
AKR7A2 (aldo-keto reductase family 7 member A2),SID160720375,1.28,107,0.27
GNB1 (G protein subunit beta 1),SID160730985,-0.889,64.2,0.945
GNB1 (G protein subunit beta 1),SID160772149,0.476,91.4,0.092
GNB1 (G protein subunit beta 1),SID160772160,4.12 (active),164,2.76
EDF1 (endothelial differentiation related factor 1),SID160720665,1.4,110,1.37
EDF1 (endothelial differentiation related factor 1),SID160720667,0.0148,82.2,0.0168
EDF1 (endothelial differentiation related factor 1),SID160732090,-0.631,69.3,-1.08
ANAPC1 (anaphase promoting complex subunit 1),SID160747849,-0.227,77.4,-0.755
ANAPC1 (anaphase promoting complex subunit 1),SID160747850,-1,61.9,-1.52
ANAPC1 (anaphase promoting complex subunit 1),SID160747851,-0.134,79.2,-1.02
APOBEC3G (apolipoprotein B mRNA editing enzyme catalytic subunit 3G),SID160747092,2.34,128,0.881
APOBEC3G (apolipoprotein B mRNA editing enzyme catalytic subunit 3G),SID160747093,3.3 (active),148,2.38
APOBEC3G (apolipoprotein B mRNA editing enzyme catalytic subunit 3G),SID160747094,-1.37,54.7,-0.592
SLC37A2,SID160761367,-1.94,43.3,-0.342
SLC37A2,SID160761368,1.92,120,1.98
SLC37A2,SID160761369,-0.986,62.3,-1.04
SYN3 (synapsin III),SID160719738,0.133,84.5,0.0493
SYN3 (synapsin III),SID160719739,-0.645,69.1,-0.652
SYN3 (synapsin III),SID160719740,-0.659,68.8,-0.0899
AUP1 (AUP1 lipid droplet regulating VLDL assembly factor),SID160722474,0.903,99.8,0.287
AUP1 (AUP1 lipid droplet regulating VLDL assembly factor),SID160722484,-1.84,45.3,-2.53
AUP1 (AUP1 lipid droplet regulating VLDL assembly factor),SID160722492,0.413,90.1,0.368
FPR1 (formyl peptide receptor 1),SID160767192,2.19,125,2.3
FPR1 (formyl peptide receptor 1),SID160767203,1.52,112,1.41
FPR1 (formyl peptide receptor 1),SID160767212,-0.111,79.7,-0.0361
RPL8 (ribosomal protein L8),SID160716036,-2.65,29.2,-0.654
RPL8 (ribosomal protein L8),SID160716037,-2.38,34.5,0.15
RPL8 (ribosomal protein L8),SID160716038,-2.19,38.4,-1.85
RFX3 (regulatory factor X3),SID160715847,0.255,87,-0.166
RFX3 (regulatory factor X3),SID160715848,-1.49,52.2,-1.89
RFX3 (regulatory factor X3),SID160715849,0.211,86.1,0.131
LEMD1-DT (LEMD1 divergent transcript),SID160763384,-0.904,63.9,-0.222
LEMD1-DT (LEMD1 divergent transcript),SID160763385,2.73,136,2.08
LEMD1-DT (LEMD1 divergent transcript),SID160763386,0.256,87,-0.106
FYRD1 (FYRN and FYRC domains INO80 complex interactor 1),SID160732044,-0.616,69.6,-0.886
FYRD1 (FYRN and FYRC domains INO80 complex interactor 1),SID160752883,-0.00283,81.8,0.0517
FYRD1 (FYRN and FYRC domains INO80 complex interactor 1),SID160752884,-1.14,59.2,-1.62
MFSD6L (major facilitator superfamily domain containing 6 like),SID160759910,-0.161,78.7,-0.018
MFSD6L (major facilitator superfamily domain containing 6 like),SID160759911,0.618,94.2,0.699
MFSD6L (major facilitator superfamily domain containing 6 like),SID160759912,-0.449,73,-0.403
AGTR1 (angiotensin II receptor type 1),SID160715668,1.31,108,1.25
AGTR1 (angiotensin II receptor type 1),SID160715679,1.04,103,0.106
AGTR1 (angiotensin II receptor type 1),SID160715689,-0.238,77.2,-0.753
NYAP1,SID160761908,4.43 (active),170,3.07
NYAP1,SID160761909,-0.0106,81.7,-0.206
NYAP1,SID160761910,-0.356,74.8,-0.247
HNMT (histamine N-methyltransferase),SID160731069,-0.367,74.6,-0.829
HNMT (histamine N-methyltransferase),SID160775108,1.27,107,1.39
HNMT (histamine N-methyltransferase),SID160775109,-0.664,68.7,-0.713
TAS2R38 (taste 2 receptor member 38),SID160715283,1.67,115,2.52
TAS2R38 (taste 2 receptor member 38),SID160715284,-0.3,75.9,-0.435
TAS2R38 (taste 2 receptor member 38),SID160715285,3.94 (active),160,2.5
IL24 (interleukin 24),SID160729727,0.603,93.9,0.943
IL24 (interleukin 24),SID160729728,-1.43,53.4,-0.638
IL24 (interleukin 24),SID160729729,2.73,136,2.16
ESAM (endothelial cell adhesion molecule),SID160753850,-2.26,36.9,-0.554
ESAM (endothelial cell adhesion molecule),SID160753851,-0.204,77.8,-0.681
ESAM (endothelial cell adhesion molecule),SID160753852,0.448,90.8,2.01
GPX5 (glutathione peroxidase 5),SID160773984,-1.17,58.6,-1.31
GPX5 (glutathione peroxidase 5),SID160773994,0.0334,82.6,-0.0975
GPX5 (glutathione peroxidase 5),SID160774001,2.11,124,1.71
USP54 (ubiquitin specific peptidase 54),SID160732596,-0.489,72.2,-0.839
USP54 (ubiquitin specific peptidase 54),SID160759729,0.0767,83.4,-0.381
USP54 (ubiquitin specific peptidase 54),SID160759730,-0.471,72.5,-0.587
FERRY3 (FERRY endosomal RAB5 effector complex subunit 3),SID160745595,0.175,85.4,0.284
FERRY3 (FERRY endosomal RAB5 effector complex subunit 3),SID160745596,-0.349,74.9,-0.65
FERRY3 (FERRY endosomal RAB5 effector complex subunit 3),SID160745597,0.497,91.8,0.311
MZT1 (mitotic spindle organizing protein 1),SID160733381,0.643,94.7,-0.297
MZT1 (mitotic spindle organizing protein 1),SID160767718,-0.0533,80.8,-0.514
MZT1 (mitotic spindle organizing protein 1),SID160767719,2.98,141,2.57
